Results are given in words; binding and its absence hold for the method and conditions named. Binding seen in cells or lysates may run through a third protein. A result given as binding can be weak or reduced; the word gives no strength.
Molecular target: CDC-48 (C. elegans (endogenous in whole-worm lysate))
Assay: co-IP; C. elegans-specific antibodies crosslinked (BS3) to Dynabeads Protein A, incubated with wt whole-worm lysate (1 mg total protein) 30 min at room temperature; wash 50 mM Tris pH 7.2, 1 mM EDTA, 150 mM NaCl, 10% glycerol; western blot

binding: binds
B1: UBXN-3 (ubiquitin regulatory X (UBX) domain-containing protein in nematodes 3) (protein, UniProt H2L056 1-613)
chain: MDLTASLEDDQREKLRQYTEFTHQQDYEVAIGTLASLNWNLEQAIEAHLMQEDKNDDEDPEILETIPAAASGRNAGASSSSRFEPEVINIEDDEMPATRGRRRGRAVTPDETTTVDNQVKRLRIDDGSSSSSNGAATHHRGAAIPRQKRGQATEPTPSSSGSSSASFSSRRGTRANPVPPPNQEPAHPESARQNGGILASRHNNHNNQQNNHHHHHQRIPINPRRVDVFNVDSDEDDDSMAIAYEDDDDGVHEVHHSEVVARGSGPPNGRIPMIPDGFSSVSDALRNFVAIFSDRFCSTPQTQAFMPPFYTEPLPAAVKEAFDHPNSEHRRPLLFYINHDRSIAANIFASQVLCSETVSTLIRHQYVLFPWDITSDSNLMLFLEYLQAANMGDVRTIIQRLAMSKIESFPLMAIVVKERNSYRLVDYCRGTDTSDQVMEKLLSGVSEYSDIRMNEQSERREREEREAIRNQQEAEYKASLAADKARMEAKQQEIEEQRLEEERKLREEEEECVRRQTVASTVPEEPPASAPLAEIINVKFRLPEGGQDMRRFRRLESIQTLINYLSSKGYSPDKFKYFNSDFPKKEITRHFDLSHNFADTKWPAREQIFVEEI

Source: article PMC4743000
